Laboratory results reported in the supplement of paper PMC5949888.
Most values lie at the floor of the assay. Slopes are relative: functional sequences can read slightly below zero.

system: Saccharomyces cerevisiae PS128 hsf1 delta, HSF1(1-493) fusion; assay: growth estimate (transactivation domain function in HSF1 fusion, heat-shock survival) (a.u. (slope of normalised read count over time)); higher = stronger growth at 37°C, i.e. more transactivation activity; settings: library: random library

Row | Substance | growth estimate
1 | LAGRNRSLSRGRCARDWR | < -0.25
2 | SQVA | < -0.25
3 | RMVTISLRTPMPLGTTSRAI | < -0.25
4 | PEQSDAFRWSCIVTQLGIHF | < -0.25
5 | WTLELLDQTDLICATQDSSY | -0.146
6 | FVLPIPQV | < -0.25
7 | VSLVGSPSLRYILGRLGRCG | < -0.25
8 | QNRRLKRSGGGRSG | < -0.25
9 | FFCTSS | < -0.25
10 | LPT | < -0.25
11 | PVKEVLRLCEQLRVPLRTLL | < -0.25
12 | LCLSTLSQLCLAEHWPRAWS | -0.246
13 | AMLMVA | -0.205
14 | WYCRAARGETVLASYLARMR | < -0.25
15 | RKDLESNGESNRMHC | < -0.25
16 | FYRGHSHPGGCMNFVAS | < -0.25
17 | RAGSYSIGTTPPQLDSVASR | < -0.25
18 | GWVSALAPPVGPL | < -0.25
19 | AGLWFLFCDWSR | < -0.25
20 | IIATP | < -0.25
21 | KEADHPIGRIGGDP | -0.246
22 | WIEPVT | < -0.25
23 | AGTGHRVNTKDQLEGGPARP | < -0.25
24 | RSLVGCPSKHAVRFVVPPAS | < -0.25
25 | WKRNLIWECRLECGLGDRDE | < -0.25
26 | LLEKEWSGHRHRKLLVTSRG | < -0.25

A different layout for some results above.
Row	Substance	growth estimate
2	SQVA	< -0.25
22	WIEPVT	< -0.25

(cont.)

Row | Substance | growth estimate
27 | RGVGSWDFFLGET | < -0.25
28 | VPW | < -0.25
29 | GQGSVAYA | < -0.25
30 | RCRPLIHGPKGTSLCRT | < -0.25
31 | LNNLYVTCGA | < -0.25
32 | QRQWYARRC | < -0.25
33 | YKGRAEGAK | < -0.25
34 | LLYWINDTKTADTVRLPNRH | < -0.25
35 | WSSRARQRGLSAYTILEELA | < -0.25
36 | PDVADLHLGQGLGD | < -0.25
37 | EMLALQPLL | < -0.25
38 | QILSLHFQYV | < -0.25
39 | SGYTLNYARFLGSVALFVRY | < -0.25
40 | AIRGRGPGSVKLLRGRRTGN | -0.233
41 | ANGKWRSKWARVPDVQLLCR | < -0.25
42 | QRVLR | < -0.25
43 | CHLSFRVMYQRIFVPSRRCF | < -0.25
44 | NRSSLAQESHPYVWCAAFTD | < -0.25
45 | TGRGRSDKVSCHQSNGSPAP | < -0.25
46 | GEYSWTSSVDYSSCSPIR | < -0.25
47 | AADIASQEARARSYQFAE | < -0.25
48 | KNRPGSGVDMVFPQAGVGHG | < -0.25
49 | RQFENSVSGILWGYLQELDL | -0.222
50 | LPGALDTVGTFKRANCPSSW | < -0.25
51 | ATVQFSAMNRVHDRV | < -0.25
52 | EVEPSSGRRAMTKTAVYW | < -0.25

Row | Substance | growth estimate
53 | ANYPLLRLSLNH | < -0.25
54 | YRIILRNRGIL | < -0.25
55 | VVIYLEGVSP | < -0.25
56 | STC | < -0.25
57 | WWPCG | < -0.25
58 | FCQGQPLGEHARHTGGTDFP | < -0.25
59 | PAGR | < -0.25
60 | PARTS | < -0.25
61 | CERRCCAAAATAAPLLEDFN | < -0.25
62 | AYVKRNFLKLRVLGRGVEGS | < -0.25
63 | TGSGGLLVR | < -0.25
64 | CPRTPREKVYESRPEFHIAN | < -0.25
65 | GVC | < -0.25
66 | IHMS | < -0.25
67 | RKLVDY | < -0.25
68 | SDGWDTTPAGS | < -0.25
69 | RQCRSGRA | < -0.25
70 | IGPLIRFVCHLVEISGLMGK | < -0.25
71 | VIHRHFGPPLQQAIRTGTLG | < -0.25
72 | MRR | < -0.25
73 | VIECGRPQTKRGTVVKCNYS | < -0.25
74 | VVGSLLLIAFVGCSDVWKQR | < -0.25
75 | NSAGGRTS | < -0.25
76 | FPHILRLLGGES | < -0.25
77 | TQESPVVRWSGLWR | < -0.25
78 | AASYGL | < -0.25

Row | Substance | growth estimate
79 | LTRVQVPEVPGSYLLSAALL | -0.239
80 | LSTIRFMICRTPIMASGRRG | < -0.25
81 | HNS | < -0.25
82 | AVKRIRDESVGRLL | < -0.25
83 | ELCIQGFSEQRPESDNRCGS | < -0.25
84 | SGLRQCC | < -0.25
85 | NDDLCVRGSGVIEAIEYSQR | < -0.25
86 | VPQYSQYPERR | < -0.25
87 | VICSRM | < -0.25
88 | RLPYTSRSPTSSHMFRLVSE | < -0.25
89 | RTTL | < -0.25
90 | TNVRRLDACPGLNIN | < -0.25
91 | RERLEWLDTR | < -0.25
92 | GYASSRCIGISYYATSHLDH | < -0.25
93 | GGRYGRCGRSTGQPARRIQR | < -0.25
94 | TTTEW | < -0.25
95 | RKQGGLTLCILEALASLTL | < -0.25
96 | FRQPRLKGLEE | < -0.25
97 | LNHIEAFILRGPWTSS | < -0.25
98 | CLQRDGGNLICMLVQGDLCV | < -0.25
99 | GMRYAIGLSVERHLG | < -0.25
100 | RPTNLHDRTKPVKARPNRLV | < -0.25
101 | FTSGRHQGFGAPKRLMPPTR | < -0.25
102 | LNIRRKIGSGCAPRLRICHE | < -0.25
103 | FIHTS | < -0.25
104 | SVCLGGRNGWARTRVGKERG | < -0.25

Row | Substance | growth estimate
105 | CGLALPAPKIG | < -0.25
106 | EGQS | < -0.25
107 | AVS | < -0.25
108 | LMRVDTWGDQRARPRQL | < -0.25
109 | LLFTAVKAPRVPSFEDQVRT | < -0.25
110 | PRTNGSYNVRCGTQALAVLA | < -0.25
111 | RDIHLKQQIKGR | < -0.25
112 | APIGGILWLAGRICLGCAGL | < -0.25
113 | SYPHLKSSDHLSCAQPL | -0.241
114 | QFGGDNNHREQMNDTSAKAG | < -0.25
115 | APPLLRNVLHRYTDPEARGG | < -0.25
116 | NNNRLSPR | < -0.25
117 | GGILRAHPSGIWNTNTPYGR | < -0.25
118 | IKHTRDR | < -0.25
119 | RSSVCSLRKGSGF | < -0.25
120 | LVLTNSCGQYLE | < -0.25
121 | RRTRATSLYNRGLMVHQ | < -0.25
122 | TVQYLFAIDLESGDRAPEHL | < -0.25
123 | DISRPDHVRPVNTLAAEQGL | < -0.25
124 | SLGHQNRPFADASGAVSLKP | < -0.25
125 | LTHMESDCVPVGGADFEVFN | < -0.25
126 | GISEGIQACPLRIGEKIGPM | < -0.25
127 | VGWEISRISV | < -0.25
128 | VTDAMGVAVWISM | < -0.25
129 | YIHYI | < -0.25
130 | PLYSFTIGRYAGILNHQTFR | < -0.25

Row | Substance | growth estimate
131 | RVGKGGVNPQVRAHSFVVLD | < -0.25
132 | YIRSKSVNAYRRMRTLMSIL | < -0.25
133 | HTVG | < -0.25
134 | HSRDTCIIALFTNAGDAHKQ | -0.196
135 | VTSHL | < -0.25
136 | LTWR | < -0.25
137 | ETMPVTIGSGFGIALPERTR | < -0.25
138 | FVGLG | < -0.25
139 | GLRRAGDEPAACEW | < -0.25
140 | LGTE | < -0.25
141 | QVLASVSTGALQQPLCLCVG | < -0.25
142 | GVYSLSTLCFRVRDHQCTSQ | < -0.25
143 | DVMHCSETKTGGWSAVRKHR | -0.246
144 | VKALLEAKCRHSLAHPNTGL | < -0.25
145 | QGASQSLTKYTAVRAPGSKA | < -0.25
146 | QPRRILGPCFRRWRPALQHE | < -0.25
147 | VNRRGGLERIHFPSVRHSPS | < -0.25
148 | RMVGRVLTRATCQIIRHAPE | < -0.25
149 | CHARLSWYPAAFRSEDRAC | < -0.25
150 | PAYGFH | < -0.25
151 | DLQK | < -0.25
152 | PIRTNGFVWGNARQGVRRL | < -0.25
153 | LTRVLTLQNGLSLRM | < -0.25
154 | RMYASPQGID | < -0.25
155 | SHLSSGERYDSFPHGRTTLT | < -0.25
156 | LIHKWLGSEFTSCVIRLSVF | -0.243

Row | Substance | growth estimate
157 | LRCKLG | < -0.25
158 | DSG | < -0.25
159 | TSHHGDVSAQARIPMETLFH | -0.162
160 | SRLRDISSFMNLSSLELPAR | < -0.25
161 | SRSHPGLIPSSIEERFSGKG | < -0.25
162 | CTLIIGVPWYGFMRGWAELW | < -0.25
163 | VRGYALGLKSIEIVARIVSP | < -0.25
164 | PVGQMQRR | < -0.25
165 | EEQDGHPEAILNRAVQQAAT | < -0.25
166 | REWVTPRSY | < -0.25
167 | LANCTLCTRTAHVFSETTVV | < -0.25
168 | FHVYEGVGSTWEWCPFLQPN | 2.62
169 | HVREALRAQRDNP | < -0.25
170 | GSTTGRALV | < -0.25
171 | EEGHFGSH | < -0.25
172 | VIFYEGIV | < -0.25
173 | LLRNRALHRDVLVIDEHSRR | < -0.25
174 | ARLGVVSNLVIRTKDSSWLE | < -0.25
175 | SQSGRPYRARC | < -0.25
176 | IDRIGYWKFPDNYVAVV | < -0.25
177 | EATGKTQSGNENAHPAATYY | < -0.25
178 | SWPSTAGLIARSSG | < -0.25
179 | VKLCYRRACESGVTVPNLEG | < -0.25
180 | CLGERAIGVSWLLGKFNRRL | < -0.25
181 | VASGSATAGDHARDLLGECG | < -0.25
182 | RSHRFLRLSPSRCVSKPRTP | < -0.25

Single values from the results shown.
In growth estimate, DSG shows < -0.25
In growth estimate, VKLCYRRACESGVTVPNLEG shows < -0.25

(next part)

Row | Substance | growth estimate
183 | SLRSPEALRWS | < -0.25
184 | ASESTTGRDGSAASAHAQRV | < -0.25
185 | PGM | < -0.25
186 | TNFPLCEDVEPRNIGSNDAR | < -0.25
187 | PIFS | < -0.25
188 | AGVESRWVYDKCVRSSCSCS | < -0.25
189 | HVYCAGI | -0.245
190 | RYYCERE | -0.246
191 | YRRVCST | < -0.25
192 | CTHSKLNMVYGGWAPALGSS | < -0.25
193 | PSVTRRE | < -0.25
194 | PSNRAYGLRRLSHSPLGTIG | < -0.25
195 | CLEDI | < -0.25
196 | GDRSLQFRMGSSGRWCQSGF | < -0.25
197 | KWS | < -0.25
198 | HIGVVRIVGTDPVGEQCT | < -0.25
199 | GLRHPLHAD | < -0.25
200 | RVNLHG | -0.0128
201 | PELEAPKYECPRTDNVVVDS | < -0.25

Copied from the listing for reference:
Row | Substance | growth estimate
193 | PSVTRRE | < -0.25
194 | PSNRAYGLRRLSHSPLGTIG | < -0.25
195 | CLEDI | < -0.25
196 | GDRSLQFRMGSSGRWCQSGF | < -0.25
197 | KWS | < -0.25
198 | HIGVVRIVGTDPVGEQCT | < -0.25
